Test results: article PMC10692324
No constants are given. Whether binding was seen depends on the method and setting. Binding seen in cells or lysates may run through a third protein. Some results given as binding are weak or reduced against the parent protein; the word gives no strength.

Sequences of proteins named here, by UniProt entry; tags and fusion partners are left off.
UniProt P10275: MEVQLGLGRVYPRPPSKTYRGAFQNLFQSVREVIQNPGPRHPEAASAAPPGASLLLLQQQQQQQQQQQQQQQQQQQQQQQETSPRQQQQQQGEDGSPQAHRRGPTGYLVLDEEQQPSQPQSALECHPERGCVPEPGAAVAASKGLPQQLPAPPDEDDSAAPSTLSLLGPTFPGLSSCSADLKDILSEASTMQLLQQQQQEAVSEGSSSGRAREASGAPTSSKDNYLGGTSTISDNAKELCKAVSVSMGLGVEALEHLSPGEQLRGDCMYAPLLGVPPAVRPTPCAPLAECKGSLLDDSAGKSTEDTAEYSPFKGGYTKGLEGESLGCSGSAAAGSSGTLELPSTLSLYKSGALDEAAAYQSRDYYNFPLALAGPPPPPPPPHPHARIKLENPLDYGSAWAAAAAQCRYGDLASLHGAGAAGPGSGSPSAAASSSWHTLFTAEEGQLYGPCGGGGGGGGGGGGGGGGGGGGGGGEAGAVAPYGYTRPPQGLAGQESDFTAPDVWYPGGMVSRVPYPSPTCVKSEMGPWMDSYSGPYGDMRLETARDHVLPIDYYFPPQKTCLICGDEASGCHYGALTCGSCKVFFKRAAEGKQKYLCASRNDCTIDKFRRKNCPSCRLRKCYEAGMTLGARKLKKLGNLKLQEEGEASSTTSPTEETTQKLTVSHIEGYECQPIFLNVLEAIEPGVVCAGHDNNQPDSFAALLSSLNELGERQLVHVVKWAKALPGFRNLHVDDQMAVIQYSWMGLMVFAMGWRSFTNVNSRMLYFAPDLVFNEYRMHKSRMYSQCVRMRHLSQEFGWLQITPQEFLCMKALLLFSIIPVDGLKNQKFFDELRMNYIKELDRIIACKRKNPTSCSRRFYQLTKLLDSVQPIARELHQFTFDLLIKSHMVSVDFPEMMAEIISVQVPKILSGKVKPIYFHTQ
UniProt P21333: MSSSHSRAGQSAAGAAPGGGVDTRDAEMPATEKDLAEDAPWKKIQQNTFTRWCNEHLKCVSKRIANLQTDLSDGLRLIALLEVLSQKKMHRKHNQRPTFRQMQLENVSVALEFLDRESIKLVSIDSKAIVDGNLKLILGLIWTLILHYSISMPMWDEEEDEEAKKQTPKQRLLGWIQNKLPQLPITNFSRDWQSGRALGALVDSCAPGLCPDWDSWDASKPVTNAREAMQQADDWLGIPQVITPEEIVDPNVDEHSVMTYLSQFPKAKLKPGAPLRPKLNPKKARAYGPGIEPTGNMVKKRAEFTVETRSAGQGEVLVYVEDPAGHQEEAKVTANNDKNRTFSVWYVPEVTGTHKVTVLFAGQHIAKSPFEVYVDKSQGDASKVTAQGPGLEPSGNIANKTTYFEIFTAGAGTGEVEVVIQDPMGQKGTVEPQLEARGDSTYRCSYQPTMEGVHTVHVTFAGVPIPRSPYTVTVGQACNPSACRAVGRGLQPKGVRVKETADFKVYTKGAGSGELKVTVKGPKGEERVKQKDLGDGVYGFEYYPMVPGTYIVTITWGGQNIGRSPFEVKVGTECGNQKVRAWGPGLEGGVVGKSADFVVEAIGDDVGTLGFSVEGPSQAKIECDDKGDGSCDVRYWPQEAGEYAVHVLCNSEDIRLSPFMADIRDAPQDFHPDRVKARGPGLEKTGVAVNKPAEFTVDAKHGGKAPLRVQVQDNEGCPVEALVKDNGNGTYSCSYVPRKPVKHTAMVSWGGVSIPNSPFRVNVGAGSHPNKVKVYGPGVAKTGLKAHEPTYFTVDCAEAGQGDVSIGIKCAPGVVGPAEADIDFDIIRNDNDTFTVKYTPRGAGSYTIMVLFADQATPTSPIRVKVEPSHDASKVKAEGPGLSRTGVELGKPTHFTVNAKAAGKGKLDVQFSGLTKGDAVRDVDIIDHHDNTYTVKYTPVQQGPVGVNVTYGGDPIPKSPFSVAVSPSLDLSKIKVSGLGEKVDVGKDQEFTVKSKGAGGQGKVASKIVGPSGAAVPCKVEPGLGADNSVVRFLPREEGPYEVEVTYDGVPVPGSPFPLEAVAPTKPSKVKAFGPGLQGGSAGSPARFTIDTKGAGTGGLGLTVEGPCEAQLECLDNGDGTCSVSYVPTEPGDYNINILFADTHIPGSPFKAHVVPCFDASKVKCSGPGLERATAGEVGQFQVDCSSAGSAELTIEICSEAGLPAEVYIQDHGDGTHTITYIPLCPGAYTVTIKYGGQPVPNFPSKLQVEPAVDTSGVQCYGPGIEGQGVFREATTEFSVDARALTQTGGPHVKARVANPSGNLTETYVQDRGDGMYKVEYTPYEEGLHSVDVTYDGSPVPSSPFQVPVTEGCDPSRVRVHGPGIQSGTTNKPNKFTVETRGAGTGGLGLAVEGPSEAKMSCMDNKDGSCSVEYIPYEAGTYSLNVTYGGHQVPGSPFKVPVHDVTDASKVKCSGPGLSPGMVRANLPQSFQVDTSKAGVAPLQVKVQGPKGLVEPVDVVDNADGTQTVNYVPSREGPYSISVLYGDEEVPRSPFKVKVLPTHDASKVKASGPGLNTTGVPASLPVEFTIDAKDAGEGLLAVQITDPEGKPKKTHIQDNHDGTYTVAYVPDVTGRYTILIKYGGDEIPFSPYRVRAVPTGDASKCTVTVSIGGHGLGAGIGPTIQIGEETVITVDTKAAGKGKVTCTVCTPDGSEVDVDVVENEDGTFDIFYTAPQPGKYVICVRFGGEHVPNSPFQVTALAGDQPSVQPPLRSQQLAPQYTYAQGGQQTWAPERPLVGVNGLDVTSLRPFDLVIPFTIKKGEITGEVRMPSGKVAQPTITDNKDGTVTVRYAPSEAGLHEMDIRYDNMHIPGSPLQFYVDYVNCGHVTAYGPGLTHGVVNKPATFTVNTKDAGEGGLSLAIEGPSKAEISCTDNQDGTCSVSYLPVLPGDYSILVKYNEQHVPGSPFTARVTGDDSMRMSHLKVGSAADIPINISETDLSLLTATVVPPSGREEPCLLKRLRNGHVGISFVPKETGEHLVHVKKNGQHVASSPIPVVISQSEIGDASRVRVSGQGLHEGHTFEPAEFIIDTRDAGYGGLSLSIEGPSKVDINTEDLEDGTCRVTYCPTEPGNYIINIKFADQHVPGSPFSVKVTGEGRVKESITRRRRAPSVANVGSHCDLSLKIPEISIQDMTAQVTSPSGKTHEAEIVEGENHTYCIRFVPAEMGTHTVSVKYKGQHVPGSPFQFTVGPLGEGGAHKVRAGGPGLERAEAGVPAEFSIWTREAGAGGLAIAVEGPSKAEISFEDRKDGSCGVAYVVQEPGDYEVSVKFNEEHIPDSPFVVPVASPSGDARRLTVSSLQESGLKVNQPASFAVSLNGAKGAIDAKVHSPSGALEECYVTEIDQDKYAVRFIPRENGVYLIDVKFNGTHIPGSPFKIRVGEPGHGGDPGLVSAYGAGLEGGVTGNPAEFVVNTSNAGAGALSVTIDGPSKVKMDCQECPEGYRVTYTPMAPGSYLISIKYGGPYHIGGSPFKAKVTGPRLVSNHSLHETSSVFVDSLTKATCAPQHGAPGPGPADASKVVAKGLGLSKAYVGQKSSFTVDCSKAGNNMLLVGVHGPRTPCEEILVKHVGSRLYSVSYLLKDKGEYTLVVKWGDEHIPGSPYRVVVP

Biological target: androgen receptor (human (endogenous in skeletal muscle biopsies)) (UniProt P10275)
Assay: co-IP; lysates of human skeletal muscle biopsies (RIPA buffer) from young (<58 years, 1 mg lysate protein) or old (>70 years, 3 mg) subjects, immune-precipitated with anti-AR antibody (E354N) or control IgG; FlnA detected by western blot

In the case of filamin A (from UniProt P21333 1-2647), the binding is reported as “binds”.
